Laboratory results published in PMC8771839.
These are yes or no findings as the source states them, for the method shown. Binding seen in cells or lysates may run through a third protein. Some results given as binding are weak or reduced against the parent protein; the word gives no strength. Where a sequence is shown, tags or fusion partners need not be part of it.

Chains of the proteins cited; added tags and fusions are not shown.
UniProt Q13200: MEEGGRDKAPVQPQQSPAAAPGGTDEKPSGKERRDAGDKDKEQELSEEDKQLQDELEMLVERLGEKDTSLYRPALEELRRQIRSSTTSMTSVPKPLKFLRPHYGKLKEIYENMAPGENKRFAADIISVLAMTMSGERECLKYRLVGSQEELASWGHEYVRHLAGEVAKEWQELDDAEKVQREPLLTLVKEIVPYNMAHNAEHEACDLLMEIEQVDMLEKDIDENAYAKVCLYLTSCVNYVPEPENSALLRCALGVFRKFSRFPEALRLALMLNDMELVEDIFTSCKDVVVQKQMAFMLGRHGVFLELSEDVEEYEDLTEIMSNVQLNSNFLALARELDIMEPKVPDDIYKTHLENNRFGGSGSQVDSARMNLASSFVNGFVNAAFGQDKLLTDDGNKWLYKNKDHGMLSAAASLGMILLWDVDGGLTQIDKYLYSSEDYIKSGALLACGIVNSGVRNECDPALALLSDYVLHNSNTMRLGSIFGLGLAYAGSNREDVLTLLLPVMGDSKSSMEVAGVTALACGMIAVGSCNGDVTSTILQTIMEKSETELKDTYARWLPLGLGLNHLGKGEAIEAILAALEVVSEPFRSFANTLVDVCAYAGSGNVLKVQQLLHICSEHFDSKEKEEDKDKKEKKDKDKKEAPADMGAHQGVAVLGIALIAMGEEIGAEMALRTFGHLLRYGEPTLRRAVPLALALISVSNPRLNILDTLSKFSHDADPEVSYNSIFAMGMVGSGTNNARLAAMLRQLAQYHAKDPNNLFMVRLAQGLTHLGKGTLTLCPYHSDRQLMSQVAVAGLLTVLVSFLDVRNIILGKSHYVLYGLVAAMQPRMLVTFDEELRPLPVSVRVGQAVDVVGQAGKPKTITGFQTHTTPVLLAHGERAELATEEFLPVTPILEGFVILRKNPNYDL

Molecular target: T1, DIRAS family GTPase 2 (DIRAS2), FLAG-tagged (human) (UniProt Q96HU8)
T1 sequence: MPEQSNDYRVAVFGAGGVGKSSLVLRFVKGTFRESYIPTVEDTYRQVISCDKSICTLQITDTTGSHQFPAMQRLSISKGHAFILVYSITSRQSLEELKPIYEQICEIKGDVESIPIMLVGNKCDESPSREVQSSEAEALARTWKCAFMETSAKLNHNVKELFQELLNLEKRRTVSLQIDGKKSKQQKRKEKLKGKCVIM
Test: co-IP; lysates of RKO and HEK293 cells incubated overnight with primary antibodies or control immunoglobulin G, protein A/G-magnetic beads, western blotting

binding: binds
Substance: 26S proteasome non-ATPase regulatory subunit 2 (PSMD2) (from UniProt Q13200 1-908)
